Results taken from PubChem BioAssay (NCATS).
The shares of active, inactive and inconclusive entries below differ from those in the screen. For some of these results: Where the call is inconclusive, the potency comes from a doubtful curve fit. Activity calls are given as the source filed them. The call rests on the fitted dose curve; in most records, active means well fitted cell-killing curve with a large enough effect; inconclusive means small, poorly fitted or top-dose-only effect, or effect the other way; inactive means no such curve, though single readings can be large or run the other way.

Key:
[1] = Quantitative High-Throughput drug screen in 47 multiple myeloma cell lines against the NCATS MIPE library collection: Delta47_JCRB cell viability assay (AID 1918925; further: nearly all actives have a fitted effect of over 45% in size); conditions: Delta47 myeloma viability, CellTiter-Glo ATP, 48 h; viability (% of DMSO): at 45.8 µM (top of the series)
Method in brief: (§1)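 CellTiter-Glo ATP luminescence gave viability after 48 h compound treatment at 37C of 500 multiple myeloma cells per well. Normalisation used DMSO-only wells as 100% and media-only wells as 0% viability; primary qHTS of approved and investigational drugs.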

[2] = Quantitative High-Throughput drug screen in 47 multiple myeloma cell lines against the NCATS MIPE library collection: EJM_DSMZ cell viability assay (AID 1918926; further: nearly all actives have a fitted effect of over 30% in size)
Method in brief: as §1

[3] = Quantitative High-Throughput drug screen in 47 multiple myeloma cell lines against the NCATS MIPE library collection: ARP1_JJKsccF8 cell viability assay (AID 1918928; further: nearly all actives have a fitted effect of over 40% in size); conditions: ARP1 myeloma cells viability, CellTiter-Glo ATP, 48 h; viability: at 45.8 µM (top of the series)
Method in brief: (§2)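 Here, 48 h treatment with MIPE 4.0 agents at 37 °C preceded an ATP luminescence read. Plating density was 500 cells per well.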

[4] = Quantitative High-Throughput drug screen in 47 multiple myeloma cell lines against the NCATS MIPE library collection: ARD_JJKsccE7 cell viability assay (AID 1918929); conditions: ARD myeloma cell line viability, CellTiter-Glo, 48 h; viability: at 45.8 µM (top of the series)
Method in brief: as §1

[5] = Quantitative High-Throughput drug screen in 47 multiple myeloma cell lines against the NCATS MIPE library collection: KMM1_JCRB cell viability assay (AID 1918960); conditions: KMM1 myeloma viability, CellTiter-Glo ATP luminescence, 48 h; viability (% of DMSO): at 45.8 µM (top of the series); further: nearly all actives have a fitted effect of over 30% in size;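 on viability (% of DMSO): 100% = DMSO-treated cells and 0% = medium-only wells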
Method in brief: as §2

[6] = Quantitative High-Throughput drug screen in 47 multiple myeloma cell lines against the NCATS MIPE library collection: AMO1_DSMZ cell viability assay (AID 1918927; further: nearly all actives have a fitted effect of over 30% in size); conditions: AMO1 myeloma cells viability, CellTiter-Glo ATP luminescence, 48 h; viability, % of DMSO: at 45.8 µM (top of the series)
Method in brief: as §1

[7] = Quantitative High-Throughput drug screen in 47 multiple myeloma cell lines against the NCATS MIPE library collection: Karpas620_DSMZ cell viability assay (AID 1918959); further: nearly all actives have a fitted effect of over 30% in size
Method in brief: (§3)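 Primary qHTS used for cherry-picking: cells at 500/well, library compounds for 48 h (37C, 5% CO2), luminescent ATP assay.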

[8] = Quantitative High-Throughput drug screen in 47 multiple myeloma cell lines against the NCATS MIPE library collection: FR4_PLB cell viability assay (AID 1918924; further: nearly all actives have a fitted effect of over 35% in size)
Method in brief: as §3
Potency means the concentration at half of the fitted maximal effect.

Q: Which Potency [1] does the source give for `O=C(O)CNC(=O)c1c(O)c2ccccc2n(Cc2ccccc2)c1=O` here?
A: Its Potency is “inactive”.

Q: What about the Potency [2] of the same molecule?
A: The Potency was “inactive”.

Q: What about the Potency [3] of the same molecule?
A: The Potency was “inactive”.

Q: What about the Potency [4] of the same molecule?
A: Its Potency is “inactive”.

Q: What about the Potency [5] of the same molecule?
A: The Potency was “inactive”.

Q: What does the source list for `CN(C)[C@@H]1C(=O)C(C(N)=O)=C(O)[C@@]2(O)C(=O)C3=C(O)c4c(O)cccc4[C@@](C)(O)[C@H]3[C@H](O)[C@@H]12`?
A: Potency [1]: inconclusive: 20900 nM [cytotoxic, partial curve, poor fit]; Potency [6]: inconclusive: 11.8 nM [cytotoxic, full curve, poor fit]; Potency [3]: inconclusive: 18700 nM [cytotoxic, partial curve]; Potency [4]: inactive; Potency [7]: inconclusive: 7.4 nM [cytotoxic, full curve, poor fit]

Q: Which Potency [1] does the source give for `c1ccc(CCCN2CCN(CCOC(c3ccccc3)c3ccccc3)CC2)cc1` here?
A: The Potency was active: 16600 nM.

Q: And the Potency [2]?
A: Its Potency is inconclusive: 23500 nM [cytotoxic, partial curve, poor fit].

Q: And the Potency [6]?
A: Its Potency is inconclusive: 2.1 nM [cytotoxic, full curve, poor fit].

Q: What about the Potency [3] of the same molecule?
A: The Potency was inconclusive: 33200 nM [cytotoxic, single point].

Q: And the Potency [4]?
A: The Potency was “inactive”.

Q: What does the source list for `C=C[C@@H]1CN2CCC1C[C@H]2[C@H](O)c1ccnc2ccccc12` (stereo not given in full)?
A: Potency [1]: inconclusive: 13200 nM [cytotoxic, partial curve, poor fit]; Potency [2]: inconclusive: 469 nM [cytotoxic, partial curve, poor fit]; Potency [6]: inactive; Potency [3]: inconclusive: 7430 nM [cytotoxic, full curve]; Potency [5]: inconclusive: 7430 nM [cytotoxic, single point]

Q: For `CC=C(C)C(=O)N[C@@H](c1ccccc1)[C@@H](O)C(=O)O[C@H]1C[C@@]2(O)[C@@H](OC(=O)c3ccccc3)[C@@H]3[C@]4(OC(C)=O)CO[C@@H]4C[C@H](O)[C@@]3(C)C(=O)[C@H](OC(C)=O)C(=C1C)C2(C)C`, which Potency [1] is on record?
A: Its Potency is inconclusive: 2.3 nM [cytotoxic, full curve].

Q: And the Potency [2]?
A: The Potency was “inactive”.

Q: What about the viability, % of DMSO [6] of the same molecule?
A: The viability, % of DMSO was inconclusive: 19.1% [cytotoxic].

Q: What about the Potency [4] of the same molecule?
A: The Potency was active: 1 nM.

Q: What about the Potency [7] of the same molecule?
A: Its Potency is inconclusive: 1.2 nM [cytotoxic, full curve].

Q: And the viability (% of DMSO) [5]?
A: Its viability (% of DMSO) is inconclusive: 19.8% [cytotoxic].

Q: What does the source list for `CC(C)N[C@@H]1CCn2c(=O)[nH]c3cccc(c32)[C@@H]1O`?
A: Potency [8]: inconclusive: 29600 nM [cytotoxic, single point]; Potency [4]: active: 6620 nM

Q: With `CC(=O)O[C@@]12CO[C@H]1C[C@H](O)[C@@]1(C)C(=O)[C@H](O)C3=C(C)[C@@H](O)C[C@@](O)([C@@H](OC(=O)c4ccccc4)[C@@H]21)C3(C)C` as the molecule, how does the Potency [1] read?
A: Its Potency is inconclusive: 2960 nM [cytotoxic, full curve].

Q: And the Potency [6]?
A: Its Potency is inconclusive: 2640 nM [cytotoxic, full curve].

Q: And the Potency [3]?
A: Its Potency is active: 2640 nM.

Q: What about the Potency [7] of the same molecule?
A: The Potency was inconclusive: 1050 nM [cytotoxic, full curve].

Q: What about the Potency [5] of the same molecule?
A: The Potency was active: 1180 nM.

Q: What does the source list for `COc1ccc2c(c1)[C@]13CCCCC1C(C2)N(C)CC3` (stereo not given in full)?
A: Potency [1]: inconclusive: 526 nM [rising, full curve, poor fit]; Potency [6]: inactive; Potency [3]: inactive

Q: For `COc1cc(OC)c(OC)cc1C=O`, which Potency [1] is on record?
A: Its Potency is “inactive”.

Q: And the Potency [6]?
A: The Potency was “inactive”.

Q: And the Potency [3]?
A: Its Potency is “inactive”.

Q: And the Potency [4]?
A: Its Potency is “inactive”.

Q: And the Potency [7]?
A: Its Potency is “inactive”.

Q: And the Potency [5]?
A: The Potency was “inactive”.

Q: Which Potency [1] does the source give for `c1cc2c(cc1[C@H]1OC[C@H]3[C@H]1CO[C@H]3c1ccc3c(c1)OCO3)OCO2` here?
A: The Potency was “inactive”.

Q: What about the Potency [2] of the same molecule?
A: The Potency was inconclusive: 1.2 nM [cytotoxic, full curve, poor fit].

Q: And the Potency [3]?
A: The Potency was inconclusive: 37200 nM [cytotoxic, single point].

Q: What about the Potency [5] of the same molecule?
A: The Potency was inconclusive: 37200 nM [cytotoxic, single point].

Q: For `COC1(CS(=O)c2ccccc2)CCN(CCc2c[nH]c3ccc(F)cc23)CC1` (stereo not given), which Potency [1] is on record?
A: The Potency was inconclusive: 18700 nM [cytotoxic, partial curve, poor fit].

Q: What about the Potency [6] of the same molecule?
A: Its Potency is inconclusive: 26.4 nM [cytotoxic, full curve, poor fit].

Q: And the Potency [3]?
A: The Potency was “inactive”.

Q: What about the Potency [4] of the same molecule?
A: The Potency was “inactive”.

Q: And the Potency [7]?
A: The Potency was inconclusive: 10.5 nM [cytotoxic, full curve, poor fit].

Q: And the Potency [5]?
A: The Potency was inconclusive: 7.4 nM [cytotoxic, full curve, poor fit].

Q: With `C=CCON=C(C[C@H]1O[C@@H]2O[C@]3(C)CC[C@@H]4[C@H](C)CC[C@@H]([C@H]1C)[C@@]24OO3)[C@H]1O[C@@H]2O[C@]3(C)CC[C@H]4[C@H](C)CC[C@@H]([C@@H]1C)[C@@]24OO3` as the molecule, how does the Potency [8] read?
A: Its Potency is inconclusive: 264 nM [cytotoxic, full curve].

Q: What about the Potency [7] of the same molecule?
A: The Potency was inconclusive: 83.3 nM [cytotoxic, full curve, poor fit].

Q: And the Potency [5]?
A: Its Potency is inconclusive: 118 nM [cytotoxic, full curve, poor fit].
